Experimental data from the supplement of paper PMC10849652.
The list shows a part of the results.

Amino acid sequences for entries named in this document (tags omitted). A change or cut given only in a name is not applied to a line headed by its entry.
UniProt P25705: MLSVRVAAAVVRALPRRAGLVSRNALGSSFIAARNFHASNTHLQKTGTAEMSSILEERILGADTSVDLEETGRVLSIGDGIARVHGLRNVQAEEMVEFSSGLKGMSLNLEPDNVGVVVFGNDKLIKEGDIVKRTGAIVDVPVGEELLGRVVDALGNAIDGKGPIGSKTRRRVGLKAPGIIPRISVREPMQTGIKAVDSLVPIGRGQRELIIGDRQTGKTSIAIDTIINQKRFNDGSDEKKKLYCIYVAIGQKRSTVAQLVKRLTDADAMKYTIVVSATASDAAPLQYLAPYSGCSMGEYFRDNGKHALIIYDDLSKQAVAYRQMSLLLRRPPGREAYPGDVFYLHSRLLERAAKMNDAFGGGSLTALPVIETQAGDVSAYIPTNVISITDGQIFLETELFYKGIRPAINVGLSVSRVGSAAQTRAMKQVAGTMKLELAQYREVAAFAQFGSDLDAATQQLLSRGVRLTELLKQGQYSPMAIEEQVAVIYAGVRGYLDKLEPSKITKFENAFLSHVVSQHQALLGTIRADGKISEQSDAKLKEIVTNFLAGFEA
UniProt Q9H1Y0: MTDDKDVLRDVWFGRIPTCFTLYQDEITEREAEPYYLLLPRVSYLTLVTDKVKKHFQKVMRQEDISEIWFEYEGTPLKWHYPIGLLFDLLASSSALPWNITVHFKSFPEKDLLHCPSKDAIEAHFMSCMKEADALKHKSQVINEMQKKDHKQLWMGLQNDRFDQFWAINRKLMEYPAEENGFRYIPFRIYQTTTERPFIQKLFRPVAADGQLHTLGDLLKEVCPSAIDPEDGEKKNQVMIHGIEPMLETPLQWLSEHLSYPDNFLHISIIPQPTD
UniProt P32121, whole entry, looked up: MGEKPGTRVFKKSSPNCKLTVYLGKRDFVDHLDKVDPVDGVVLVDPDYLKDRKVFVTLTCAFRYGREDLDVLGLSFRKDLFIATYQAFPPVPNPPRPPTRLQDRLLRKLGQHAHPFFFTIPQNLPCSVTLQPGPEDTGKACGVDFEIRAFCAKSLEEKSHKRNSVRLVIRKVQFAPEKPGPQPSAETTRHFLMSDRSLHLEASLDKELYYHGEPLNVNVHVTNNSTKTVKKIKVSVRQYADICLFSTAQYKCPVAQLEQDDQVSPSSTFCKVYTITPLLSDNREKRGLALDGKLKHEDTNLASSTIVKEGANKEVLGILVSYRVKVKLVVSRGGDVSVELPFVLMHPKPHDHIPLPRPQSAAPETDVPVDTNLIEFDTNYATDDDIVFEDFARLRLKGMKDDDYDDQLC
UniProt O75348, whole entry, looked up: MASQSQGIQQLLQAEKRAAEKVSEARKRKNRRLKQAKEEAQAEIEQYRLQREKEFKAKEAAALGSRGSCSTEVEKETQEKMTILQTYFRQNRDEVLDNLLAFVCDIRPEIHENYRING
UniProt O75947: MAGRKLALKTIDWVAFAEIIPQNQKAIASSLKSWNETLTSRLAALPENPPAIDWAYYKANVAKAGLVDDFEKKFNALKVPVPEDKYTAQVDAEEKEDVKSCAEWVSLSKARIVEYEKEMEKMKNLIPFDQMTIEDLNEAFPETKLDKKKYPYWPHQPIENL
UniProt Q9ULH1: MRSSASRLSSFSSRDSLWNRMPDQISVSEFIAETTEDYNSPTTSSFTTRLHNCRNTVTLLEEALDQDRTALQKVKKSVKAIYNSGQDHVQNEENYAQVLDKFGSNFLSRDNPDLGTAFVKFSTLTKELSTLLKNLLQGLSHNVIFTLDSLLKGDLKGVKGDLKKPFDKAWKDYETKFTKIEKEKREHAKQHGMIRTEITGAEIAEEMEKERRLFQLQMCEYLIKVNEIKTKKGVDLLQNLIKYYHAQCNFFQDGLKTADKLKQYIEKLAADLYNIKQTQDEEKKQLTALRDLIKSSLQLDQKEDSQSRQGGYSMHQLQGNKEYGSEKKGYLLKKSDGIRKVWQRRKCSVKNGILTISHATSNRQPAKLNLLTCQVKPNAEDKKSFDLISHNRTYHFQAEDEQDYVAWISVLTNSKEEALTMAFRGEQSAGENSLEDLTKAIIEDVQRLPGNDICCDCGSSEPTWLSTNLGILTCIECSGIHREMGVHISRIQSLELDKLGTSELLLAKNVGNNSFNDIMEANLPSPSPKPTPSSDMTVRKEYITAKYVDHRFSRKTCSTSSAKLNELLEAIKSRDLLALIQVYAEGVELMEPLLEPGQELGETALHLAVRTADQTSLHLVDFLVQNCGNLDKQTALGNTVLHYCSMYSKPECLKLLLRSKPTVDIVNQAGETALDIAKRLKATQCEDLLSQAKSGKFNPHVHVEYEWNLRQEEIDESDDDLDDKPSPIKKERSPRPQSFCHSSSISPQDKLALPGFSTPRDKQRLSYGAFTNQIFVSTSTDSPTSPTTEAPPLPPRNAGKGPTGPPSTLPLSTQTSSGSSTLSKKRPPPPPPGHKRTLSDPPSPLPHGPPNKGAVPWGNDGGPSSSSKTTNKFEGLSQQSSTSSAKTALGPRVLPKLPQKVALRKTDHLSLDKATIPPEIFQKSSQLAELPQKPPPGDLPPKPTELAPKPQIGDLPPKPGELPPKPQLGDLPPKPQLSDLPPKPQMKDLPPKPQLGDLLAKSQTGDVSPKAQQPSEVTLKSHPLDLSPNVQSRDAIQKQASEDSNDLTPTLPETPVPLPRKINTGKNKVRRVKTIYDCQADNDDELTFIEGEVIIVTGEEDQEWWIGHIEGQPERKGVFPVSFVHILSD
UniProt O75964: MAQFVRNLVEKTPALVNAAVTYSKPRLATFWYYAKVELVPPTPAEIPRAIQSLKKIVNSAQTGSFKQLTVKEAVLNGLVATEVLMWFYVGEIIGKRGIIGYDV
UniProt Q92747, whole entry, looked up: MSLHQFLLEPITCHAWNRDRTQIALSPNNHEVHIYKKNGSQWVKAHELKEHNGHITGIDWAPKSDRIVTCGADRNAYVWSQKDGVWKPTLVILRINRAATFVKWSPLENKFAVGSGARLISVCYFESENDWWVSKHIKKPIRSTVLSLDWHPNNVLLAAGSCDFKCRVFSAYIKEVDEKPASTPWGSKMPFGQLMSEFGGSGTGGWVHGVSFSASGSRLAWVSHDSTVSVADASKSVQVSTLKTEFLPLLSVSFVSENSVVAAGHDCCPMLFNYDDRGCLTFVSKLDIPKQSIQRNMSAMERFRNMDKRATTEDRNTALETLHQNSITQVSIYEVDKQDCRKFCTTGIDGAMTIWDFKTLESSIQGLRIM
UniProt P23634: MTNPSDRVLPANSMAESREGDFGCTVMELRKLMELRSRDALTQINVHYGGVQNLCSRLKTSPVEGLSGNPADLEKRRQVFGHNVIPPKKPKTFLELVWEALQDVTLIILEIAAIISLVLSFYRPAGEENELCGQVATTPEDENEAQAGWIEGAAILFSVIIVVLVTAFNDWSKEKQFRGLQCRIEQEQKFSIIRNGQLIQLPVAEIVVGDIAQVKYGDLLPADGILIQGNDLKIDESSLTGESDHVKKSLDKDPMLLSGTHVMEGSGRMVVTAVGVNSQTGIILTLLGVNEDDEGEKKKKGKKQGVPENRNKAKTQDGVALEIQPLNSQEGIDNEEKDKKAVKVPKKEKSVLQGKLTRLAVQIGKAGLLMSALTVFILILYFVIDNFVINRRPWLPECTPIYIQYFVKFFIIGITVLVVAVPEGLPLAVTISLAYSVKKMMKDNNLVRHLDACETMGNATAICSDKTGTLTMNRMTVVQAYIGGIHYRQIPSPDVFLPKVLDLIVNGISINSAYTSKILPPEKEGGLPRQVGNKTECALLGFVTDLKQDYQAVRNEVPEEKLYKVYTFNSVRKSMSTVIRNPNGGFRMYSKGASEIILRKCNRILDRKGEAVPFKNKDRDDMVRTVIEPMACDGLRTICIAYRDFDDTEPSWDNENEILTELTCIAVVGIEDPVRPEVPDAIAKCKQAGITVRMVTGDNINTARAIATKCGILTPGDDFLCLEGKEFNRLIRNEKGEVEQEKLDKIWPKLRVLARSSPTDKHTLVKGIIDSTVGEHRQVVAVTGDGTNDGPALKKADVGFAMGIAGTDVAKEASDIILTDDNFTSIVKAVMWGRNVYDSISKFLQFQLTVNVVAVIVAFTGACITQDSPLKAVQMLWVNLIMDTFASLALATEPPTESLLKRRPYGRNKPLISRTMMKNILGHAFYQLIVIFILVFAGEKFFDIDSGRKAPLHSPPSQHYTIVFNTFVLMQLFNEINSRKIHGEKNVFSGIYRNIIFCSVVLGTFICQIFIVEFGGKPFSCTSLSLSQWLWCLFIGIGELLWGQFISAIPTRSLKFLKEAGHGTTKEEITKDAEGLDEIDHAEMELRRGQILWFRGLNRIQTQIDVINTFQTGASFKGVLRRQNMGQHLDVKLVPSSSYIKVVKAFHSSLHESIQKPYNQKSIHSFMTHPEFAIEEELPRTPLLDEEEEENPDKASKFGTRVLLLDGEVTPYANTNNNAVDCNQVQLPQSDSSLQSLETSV
UniProt P04424, whole entry, looked up: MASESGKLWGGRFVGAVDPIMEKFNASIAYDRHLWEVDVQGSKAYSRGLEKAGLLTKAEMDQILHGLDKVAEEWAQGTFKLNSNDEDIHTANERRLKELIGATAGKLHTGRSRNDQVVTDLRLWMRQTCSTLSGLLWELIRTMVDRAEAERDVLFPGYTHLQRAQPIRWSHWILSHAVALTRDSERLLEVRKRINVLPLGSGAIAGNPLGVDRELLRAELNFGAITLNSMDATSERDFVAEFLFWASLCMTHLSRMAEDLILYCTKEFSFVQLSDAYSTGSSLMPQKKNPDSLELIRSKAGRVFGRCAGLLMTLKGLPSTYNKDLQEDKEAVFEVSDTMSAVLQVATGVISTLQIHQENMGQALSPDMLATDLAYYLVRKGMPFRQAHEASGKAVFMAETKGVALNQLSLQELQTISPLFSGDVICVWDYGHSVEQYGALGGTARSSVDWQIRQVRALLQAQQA
UniProt P36542: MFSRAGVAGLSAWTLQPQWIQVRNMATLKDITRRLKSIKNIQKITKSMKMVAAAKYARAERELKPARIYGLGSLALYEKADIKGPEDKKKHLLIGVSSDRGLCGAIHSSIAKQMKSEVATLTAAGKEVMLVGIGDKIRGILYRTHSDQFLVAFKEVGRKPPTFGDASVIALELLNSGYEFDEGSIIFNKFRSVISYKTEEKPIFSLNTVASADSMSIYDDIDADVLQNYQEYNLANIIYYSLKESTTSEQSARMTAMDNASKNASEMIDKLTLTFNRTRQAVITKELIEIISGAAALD
UniProt O75143: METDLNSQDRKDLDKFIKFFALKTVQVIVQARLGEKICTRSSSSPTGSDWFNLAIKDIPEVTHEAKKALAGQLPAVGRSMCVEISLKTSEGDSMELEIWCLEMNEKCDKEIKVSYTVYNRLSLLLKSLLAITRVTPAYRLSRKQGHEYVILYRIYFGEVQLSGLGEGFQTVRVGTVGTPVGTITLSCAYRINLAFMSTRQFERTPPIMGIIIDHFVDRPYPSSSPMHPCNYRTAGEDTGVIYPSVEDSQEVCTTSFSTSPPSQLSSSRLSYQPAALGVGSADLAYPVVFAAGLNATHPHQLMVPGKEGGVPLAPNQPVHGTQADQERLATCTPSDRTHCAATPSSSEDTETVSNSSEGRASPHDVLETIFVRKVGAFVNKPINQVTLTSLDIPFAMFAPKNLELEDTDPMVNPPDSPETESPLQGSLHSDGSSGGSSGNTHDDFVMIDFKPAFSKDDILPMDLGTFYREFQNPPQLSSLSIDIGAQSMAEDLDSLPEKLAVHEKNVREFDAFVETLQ
UniProt L0R819, whole entry, looked up: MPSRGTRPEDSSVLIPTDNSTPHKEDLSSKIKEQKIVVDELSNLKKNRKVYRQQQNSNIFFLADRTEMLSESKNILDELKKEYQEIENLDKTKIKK
UniProt P56378: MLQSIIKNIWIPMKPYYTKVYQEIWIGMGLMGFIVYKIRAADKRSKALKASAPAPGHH
UniProt P15336: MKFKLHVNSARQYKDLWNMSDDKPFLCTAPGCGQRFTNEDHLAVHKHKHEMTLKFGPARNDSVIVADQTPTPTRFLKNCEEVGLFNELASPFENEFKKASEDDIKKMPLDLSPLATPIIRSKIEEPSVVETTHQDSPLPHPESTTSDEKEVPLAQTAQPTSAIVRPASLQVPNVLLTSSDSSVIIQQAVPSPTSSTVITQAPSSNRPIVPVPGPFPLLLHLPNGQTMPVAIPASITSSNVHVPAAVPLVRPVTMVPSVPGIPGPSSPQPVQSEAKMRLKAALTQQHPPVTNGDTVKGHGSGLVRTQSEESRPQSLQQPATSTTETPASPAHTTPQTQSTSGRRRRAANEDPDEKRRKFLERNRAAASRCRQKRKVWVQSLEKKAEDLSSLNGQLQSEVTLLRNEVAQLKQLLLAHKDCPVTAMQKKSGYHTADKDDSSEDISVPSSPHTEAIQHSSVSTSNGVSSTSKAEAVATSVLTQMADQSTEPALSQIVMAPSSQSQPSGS

Key:
Assay in all cases: log2 fold change, soluble protein after heating vs DMSO (PISA); higher = thermal stabilisation; K562 cells, 10 uM, 30 min; active = over 0.2 and 3.5 SD of the protein, either way, in both replicates (recomputed)
[1] = compound: CC[C@@H]1C(=O)N(C)c2cnc(Nc3ccc(C(=O)NC4CCN(C)CC4)cc3OC)nc2N1C1CCCC1
How it was run: (§1)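 K562 cells (2×10^6 cells/mL) were treated with 10 μM compound for 30 min, and aliquots were heated for 3 min over 48°C-58°C. Pooled aliquots were extracted in PBS with 0.5% NP-40 at 4°C, and the supernatant after 21,000xg for 90 min was measured by TMTpro 16plex LC-MS/MS with channel sums equalised. Reported thermal stability, relative to control samples and from duplicates, is a log2 fold change.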

volasertib = compound: CC[C@@H]1C(=O)N(C)c2cnc(Nc3ccc(C(=O)N[C@H]4CC[C@H](N5CCN(CC6CC6)CC5)CC4)cc3OC)nc2N1C(C)C [volasertib]
How it was run: as §1

[2] = compound: CC[C@H](C)N1C=C(C2=C(C=C(C=C21)C3=CN=C(C=C3)N4CCNCC4)C(=O)NCC5=C(C=C(NC5=O)C)C)C
How it was run: as §1

epoxomicin = compound: CC[C@H](C)[C@@H](C(=O)N[C@@H]([C@@H](C)O)C(=O)N[C@@H](CC(C)C)C(=O)[C@]1(CO1)C)NC(=O)[C@H]([C@@H](C)CC)N(C)C(=O)C [epoxomicin]
How it was run: as §1

[3] = compound: CCn1c(C(=O)N(C2CC2)C2CC2)cc2c3c(ncn3C)c(Nc3cc(C)n(C)n3)nc21
How it was run: as §1

[4] = compound: CCn1cc(-c2ccnc3[nH]c(-c4cccc(CN(C)C)c4)cc23)c(-c2ccc(NC(=O)N(C)C)cc2)n1
How it was run: as §1

[5] = compound: CN(C)CC(=O)Nc1ccc2[nH]c(=O)c3ccccc3c2c1
How it was run: as §1

rosiglitazone = compound: CN(CCOC1=CC=C(C=C1)C[C@H]2C(=O)NC(=O)S2)C3=CC=CC=N3 (racemic) [rosiglitazone]
How it was run: as §1

[6] = compound: CN1C2=C(C3=C1C(=O)N(N=C3)CC4=CC(=CC=C4)N)SC(=C2)S(=O)C
How it was run: as §1

[7] = compound: CN1CCC(CNc2ccc3ncc(-c4cccc(OC(F)(F)F)c4)n3n2)CC1
How it was run: as §1

saracatinib = compound: CN1CCN(CCOc2cc(OC3CCOCC3)c3c(Nc4c(Cl)ccc5c4OCO5)ncnc3c2)CC1 [saracatinib]
How it was run: as §1

sotrastaurin = compound: CN1CCN(c2nc(C3=C(c4c[nH]c5ccccc45)C(=O)NC3=O)c3ccccc3n2)CC1 [sotrastaurin]
How it was run: as §1

alvocidib = compound: CN1CC[C@H](c2c(O)cc(O)c3c(=O)cc(-c4ccccc4Cl)oc23)[C@H](O)C1 [alvocidib]
How it was run: as §1

Tubastatin A = compound: CN1CCc2c(c3ccccc3n2Cc2ccc(C(=O)NO)cc2)C1 [Tubastatin A]
How it was run: as §1

[8] = compound: CNC(=O)C1=CC=CC=C1NC2=NC(=NC=C2Cl)NC3=C(C=C(C=C3)N4CCOCC4)OC
How it was run: as §1

defactinib = compound: CNC(=O)c1ccc(Nc2ncc(C(F)(F)F)c(NCc3nccnc3N(C)S(C)(=O)=O)n2)cc1 [defactinib]
How it was run: as §1

rucaparib = compound: CNCc1ccc(-c2[nH]c3cc(F)cc4c3c2CCNC4=O)cc1 [rucaparib]
How it was run: as §1

[9] = compound: CNc1nc(-c2ccc3c(N)n[nH]c3c2)cc(N2C[C@@H](C(=O)NC3CCCCC3)CC[C@H]2C)n1
How it was run: as §1

encorafenib = compound: COC(=O)N[C@@H](C)CNc1nccc(-c2cn(C(C)C)nc2-c2cc(Cl)cc(NS(C)(=O)=O)c2F)n1 [encorafenib]
How it was run: as §1

[10] = compound: COC(=O)[C@H](CCSC)NC(=O)C1=C(C=C(C=C1)NC[C@H](CS)N)C2=CC=CC=C2
How it was run: as §1

Measured: log2 fold change

ATP5F1A (UniProt P25705)
inactive: [1] 0.027 | volasertib 0.089 | [2] -0.064 | epoxomicin -0.025 | [3] 0.017 | [4] 0.031 | [5] -0.02 | rosiglitazone -0.005 | [6] -0.018 | [7] 0.087 | saracatinib 0.032 | sotrastaurin 0.037 | alvocidib 0.008 | Tubastatin A -0.03 | [8] 0.011 | defactinib 0.022 | rucaparib -0.044 | [9] -0.017 | encorafenib -0.014 | [10] 0.029

ATG5 (UniProt Q9H1Y0)
inactive: [1] -0.082 | volasertib -0.068 | [2] 0.064 | epoxomicin 0.121 | [3] 0.037 | [4] -0.037 | [5] -0.034 | rosiglitazone 0.007 | [6] -0.013 | [7] -0.009 | saracatinib -0.007 | sotrastaurin -0.03 | alvocidib -0.037 | Tubastatin A -0.009 | [8] -0.047 | defactinib 0.022 | rucaparib -0.039 | [9] 0.021 | encorafenib 0.037 | [10] -0.011

ARRB2 isoform 4 (UniProt P32121)
inactive: [1] -0.05 | volasertib -0.028 | [2] -0.005 | epoxomicin -0.038 | [3] 0.041 | [4] 0.016 | [5] -0.017 | rosiglitazone 0.004 | [6] 0.039 | [7] -0.007 | saracatinib -0.07 | sotrastaurin -0.042 | alvocidib -0.029 | Tubastatin A -0.027 | [8] -0.018 | defactinib -0.034 | rucaparib 0.003 | [9] -0.142 | encorafenib -0.011 | [10] -0.021

ATP6V1G1 (UniProt O75348)
inactive: [1] -0.066 | volasertib -0.031 | [2] 0.002 | epoxomicin -0.015 | [3] 0.028 | [4] -0.093 | [5] -0.065 | rosiglitazone -0.04 | [6] -0.037 | [7] -0.128 | saracatinib -0.087 | sotrastaurin 0.023 | alvocidib 0.002 | Tubastatin A -0.026 | [8] 0.004 | defactinib 0.034 | rucaparib 0.038 | [9] 0.006 | encorafenib -0.013 | [10] 0.049

ATP5PD (UniProt O75947)
inactive: [1] -0.03 | volasertib 0.094 | [2] -0.002 | epoxomicin 0.036 | [3] 0.027 | [4] 0.016 | [5] -0.008 | rosiglitazone -0.014 | [6] -0.059 | [7] 0.14 | saracatinib 0.053 | sotrastaurin 0.049 | alvocidib -0.001 | Tubastatin A -0.003 | [8] 0.004 | defactinib 0.009 | rucaparib 0.001 | [9] 0.011 | encorafenib -0.023 | [10] 0.016

Reprinted at random: two records from the list.
ATP6V1G1 (UniProt O75348)
inactive: [1] -0.066 | volasertib -0.031 | [2] 0.002 | epoxomicin -0.015 | [3] 0.028 | [4] -0.093 | [5] -0.065 | rosiglitazone -0.04 | [6] -0.037 | [7] -0.128 | saracatinib -0.087 | sotrastaurin 0.023 | alvocidib 0.002 | Tubastatin A -0.026 | [8] 0.004 | defactinib 0.034 | rucaparib 0.038 | [9] 0.006 | encorafenib -0.013 | [10] 0.049

ATG5 (UniProt Q9H1Y0)
inactive: [1] -0.082 | volasertib -0.068 | [2] 0.064 | epoxomicin 0.121 | [3] 0.037 | [4] -0.037 | [5] -0.034 | rosiglitazone 0.007 | [6] -0.013 | [7] -0.009 | saracatinib -0.007 | sotrastaurin -0.03 | alvocidib -0.037 | Tubastatin A -0.009 | [8] -0.047 | defactinib 0.022 | rucaparib -0.039 | [9] 0.021 | encorafenib 0.037 | [10] -0.011

The listing continues.

ASAP1 isoform 2 (UniProt Q9ULH1)
inactive: [1] -0.051 | volasertib -0.11 | [2] -0.054 | epoxomicin 0.073 | [3] -0.009 | [4] 0.078 | [5] 0.059 | rosiglitazone 0.053 | [6] -0.002 | [7] -0.138 | saracatinib -0.075 | sotrastaurin -0.088 | alvocidib -0.185 | Tubastatin A 0.075 | [8] 0.065 | defactinib -0.022 | rucaparib 0.096 | [9] 0.05 | encorafenib 0.058 | [10] -0.088

ATP5MG (UniProt O75964)
inactive: [1] -0.014 | volasertib 0.052 | [2] -0.05 | epoxomicin 0.084 | [3] -0.01 | [4] 0.062 | [5] 0.01 | rosiglitazone -0.01 | [6] -0.044 | [7] -0.154 | saracatinib 0.088 | sotrastaurin 0.003 | alvocidib 0.066 | Tubastatin A -0.009 | [8] -0.013 | defactinib -0.001 | rucaparib 0.008 | [9] -0.064 | encorafenib -0.075 | [10] -0.023

ARPC1A (UniProt Q92747)
inactive: [1] 0.096 | volasertib 0.021 | [2] -0.025 | epoxomicin -0.003 | [3] 0.063 | [4] -0.034 | [5] -0.01 | rosiglitazone -0.072 | [6] -0.026 | [7] 0.098 | saracatinib 0.085 | sotrastaurin -0.017 | alvocidib 0.039 | Tubastatin A -0.139 | [8] 0.064 | defactinib -0.004 | rucaparib -0.037 | [9] -0.087 | encorafenib -0.024 | [10] -0.088

ATP2B4 (UniProt P23634)
inactive: [1] 0.079 | volasertib 0.079 | [2] -0.036 | epoxomicin -0.101 | [3] 0.002 | [4] -0.07 | [5] -0.08 | rosiglitazone -0.049 | [6] -0.057 | [7] 0.2 | saracatinib 0.023 | sotrastaurin 0.08 | alvocidib 0.003 | Tubastatin A -0.036 | [8] -0.033 | defactinib -0.012 | rucaparib -0.015 | [9] 0.03 | encorafenib 0.011 | [10] 0.012

ASL (UniProt P04424)
inactive: [1] -0.012 | volasertib 0.047 | [2] -0.007 | epoxomicin 0.032 | [3] 0.016 | [4] -0.032 | [5] -0.008 | rosiglitazone 0.008 | [6] -0.032 | [7] -0.029 | saracatinib 0.027 | sotrastaurin 0.021 | alvocidib -0.003 | Tubastatin A -0.01 | [8] -0.016 | defactinib -0.012 | rucaparib -0.023 | [9] -0.023 | encorafenib -0.003 | [10] 0.037

ATP5F1C (UniProt P36542)
inactive: [1] 0.02 | volasertib 0.045 | [2] -0.03 | epoxomicin 0.004 | [3] 0.023 | [4] -0.014 | [5] -0.019 | rosiglitazone -0.004 | [6] -0.025 | [7] 0.087 | saracatinib 0 | sotrastaurin 0.049 | alvocidib 0.019 | Tubastatin A -0.021 | [8] 0.013 | defactinib 0.03 | rucaparib -0.01 | [9] -0.05 | encorafenib -0.037 | [10] 0.022

ATG13 isoform 5 (UniProt O75143)
inactive: [1] 0.001 | volasertib -0.118 | [2] -0.044 | epoxomicin 0.049 | [3] -0.039 | [4] -0.065 | [5] -0.019 | rosiglitazone 0.027 | [6] -0.026 | [7] -0.016 | saracatinib 0.011 | sotrastaurin 0.018 | alvocidib -0.052 | Tubastatin A 0.092 | [8] 0.053 | defactinib -0.034 | rucaparib 0.092 | [9] -0.092 | encorafenib -0.028 | [10] 0.009

ASDURF (UniProt L0R819)
inactive: [1] 0.027 | volasertib 0.164 | [2] -0.062 | epoxomicin -0.01 | [3] 0.024 | [4] 0.003 | [5] -0.069 | rosiglitazone -0.006 | [6] -0.043 | [7] 0.006 | saracatinib 0.03 | sotrastaurin 0.044 | alvocidib 0.05 | Tubastatin A -0.018 | [8] -0.042 | defactinib 0.029 | rucaparib 0.051 | [9] 0.023 | encorafenib -0.072 | [10] 0.039

ARPC4 isoform 3 (UniProt P59998)
inactive: [1] 0.038 | volasertib 0.049 | [2] -0.055 | epoxomicin 0.021 | [3] 0.043 | [4] 0.004 | [5] -0.025 | rosiglitazone 0.007 | [6] -0.039 | [7] 0.064 | saracatinib 0.044 | sotrastaurin 0.023 | alvocidib 0 | Tubastatin A 0 | [8] 0.003 | defactinib 0.021 | rucaparib -0.054 | [9] -0.122 | encorafenib 0 | [10] 0.03

ATP5MPL (UniProt P56378)
inactive: [1] 0.137 | volasertib 0.087 | [2] -0.034 | epoxomicin 0.235 | [3] 0.061 | [4] -0.041 | [5] 0.017 | rosiglitazone 0.006 | [6] -0.006 | [7] 0.156 | saracatinib 0.08 | sotrastaurin -0.117 | alvocidib -0.099 | Tubastatin A -0.052 | [8] 0.02 | defactinib -0.068 | rucaparib -0.04 | [9] -0.073 | encorafenib -0.002 | [10] 0.049

ATF2 (UniProt P15336)
inactive: [1] 0.313 | volasertib -0.009 | [2] -0.267 | epoxomicin -0.109 | [3] 0.036 | [4] 0.028 | [5] 0.1 | rosiglitazone -0.018 | [6] 0.033 | [7] 0.187 | saracatinib 0.333 | sotrastaurin 0.002 | alvocidib 0.049 | Tubastatin A 0.137 | [8] 0.015 | defactinib -0.209 | rucaparib -0.247 | [9] 0.072 | encorafenib 0.162 | [10] 0.13
